These are yes or no findings as the source states them, for the method shown. In cells and extracts the contact can be indirect. Some entries that bind do so weakly or less than the wild type.

Amino acid sequences for entries named in this document (tags omitted).
UniProt O00487: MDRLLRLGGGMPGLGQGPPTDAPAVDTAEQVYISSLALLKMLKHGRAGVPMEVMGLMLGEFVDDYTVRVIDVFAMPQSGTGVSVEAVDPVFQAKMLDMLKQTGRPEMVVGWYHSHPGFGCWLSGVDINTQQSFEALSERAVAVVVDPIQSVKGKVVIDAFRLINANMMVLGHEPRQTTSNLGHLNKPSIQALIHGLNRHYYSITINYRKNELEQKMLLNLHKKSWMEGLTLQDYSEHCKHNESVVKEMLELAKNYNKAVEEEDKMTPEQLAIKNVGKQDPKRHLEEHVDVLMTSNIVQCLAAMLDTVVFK

Among the data in publication PMC8905735 are binding values, retold here.

Experiment [1] has as its target T1, transforming growth factor beta receptor 1 (TGFBR1) (UniProt P80204).
T1 sequence: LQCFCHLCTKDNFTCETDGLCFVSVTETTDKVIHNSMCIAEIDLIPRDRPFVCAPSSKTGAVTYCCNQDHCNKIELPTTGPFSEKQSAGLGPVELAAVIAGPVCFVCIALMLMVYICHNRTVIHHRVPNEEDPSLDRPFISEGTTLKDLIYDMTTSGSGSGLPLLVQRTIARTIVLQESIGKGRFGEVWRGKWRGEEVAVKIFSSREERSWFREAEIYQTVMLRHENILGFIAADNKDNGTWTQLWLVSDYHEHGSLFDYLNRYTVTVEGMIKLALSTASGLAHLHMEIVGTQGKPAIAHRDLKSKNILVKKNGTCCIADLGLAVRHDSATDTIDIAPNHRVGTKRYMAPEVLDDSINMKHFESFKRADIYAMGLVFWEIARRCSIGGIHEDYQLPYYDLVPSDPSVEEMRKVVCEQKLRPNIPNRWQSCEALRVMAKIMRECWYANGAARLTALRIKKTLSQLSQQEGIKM
Nature of the experiment: co-IP; lysates of rMCs transfected with TGFBR1 or PSMD14 overexpression vectors (24 h); Protein G agarose beads; immunoprecipitation with anti-PSMD14 or anti-TGFBR1, western blot of the immunoprecipitates.

For experiment [2], the target named is proteasome 26S subunit, non-ATPase 14 (PSMD14) (UniProt O00487). The experiment is described as above.

As for “proteasome 26S subunit, non-ATPase 14 (PSMD14) (from UniProt O00487 1-310) (enzyme)”, the binding result in experiment [1] is “binds”.

B1: transforming growth factor beta receptor 1 (TGFBR1) (receptor, UniProt P80204 30-501)
chain: LQCFCHLCTKDNFTCETDGLCFVSVTETTDKVIHNSMCIAEIDLIPRDRPFVCAPSSKTGAVTYCCNQDHCNKIELPTTGPFSEKQSAGLGPVELAAVIAGPVCFVCIALMLMVYICHNRTVIHHRVPNEEDPSLDRPFISEGTTLKDLIYDMTTSGSGSGLPLLVQRTIARTIVLQESIGKGRFGEVWRGKWRGEEVAVKIFSSREERSWFREAEIYQTVMLRHENILGFIAADNKDNGTWTQLWLVSDYHEHGSLFDYLNRYTVTVEGMIKLALSTASGLAHLHMEIVGTQGKPAIAHRDLKSKNILVKKNGTCCIADLGLAVRHDSATDTIDIAPNHRVGTKRYMAPEVLDDSINMKHFESFKRADIYAMGLVFWEIARRCSIGGIHEDYQLPYYDLVPSDPSVEEMRKVVCEQKLRPNIPNRWQSCEALRVMAKIMRECWYANGAARLTALRIKKTLSQLSQQEGIKM
Take B1: the binding result in experiment [2] is recorded as “binds”.
